PubChem BioAssay AID1053208 | Peter MacCallum Cancer Centre | 2014

- Aim: 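Synthetic lethal interactions between gene loss and doxorubicin in osteosarcoma cells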 (primary screen)
- System: mouse osteosarcoma cells, early-passage culture from an engineered mouse model of fibroblastic bone tumour
- Reagent: siRNA pool against mouse genes, 40 nM
- Timing: about 120 h (48 h before drug, then 72 h with drug)
- Treatment: doxorubicin 100 nM for 72 h, roughly 30-40% inhibitory dose
- Read-out: 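Viability read as ATP luminescence after 72 h of 100 nM doxorubicin or none, duplicate wells averaged, scaled to non-targeting siRNA, then expressed as robust z-scores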
- Reading the numbers: viability z-score with doxorubicin: higher = more viable cells under doxorubicin; viability z-score without drug: higher = more viable cells with knock-down alone
- Hit rule: 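a pool counts as active when its viability z-score with doxorubicin is -2 or below and its z-score without drug lies between -2 and 2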
The deposit covers about 17,000 reagents; shown is a random part of them. 788 of them (4.7%) count as active. 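Calls rest on z-score classes alone; an extra cut-off of viability at most 70% of control was not applied to them.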 Further read-outs or replicates are left out here.

{"gene": "Osbpl2", "combined z-score class": "no change with or without drug", "viability z-score with doxorubicin": -1.69, "viability z-score without drug": -0.34, "outcome": "inactive"}
{"gene": "Vmn1r222", "combined z-score class": "high cell count with and without drug", "viability z-score with doxorubicin": 2.02, "viability z-score without drug": 2.19, "outcome": "inactive"}
{"gene": "Rims3", "combined z-score class": "no change with or without drug", "viability z-score with doxorubicin": 1.12, "viability z-score without drug": -0.17, "outcome": "inactive"}
{"gene": "Atp13a2", "combined z-score class": "no change with or without drug", "viability z-score with doxorubicin": 0.67, "viability z-score without drug": 0.51, "outcome": "inactive"}
{"gene": "Rassf1", "combined z-score class": "no change with or without drug", "viability z-score with doxorubicin": 0.67, "viability z-score without drug": 1.85, "outcome": "inactive"}
{"gene": "Crppa", "combined z-score class": "low cell count without drug only", "viability z-score with doxorubicin": -1.12, "viability z-score without drug": -2.53, "outcome": "inactive"}
{"gene": "Trem4", "combined z-score class": "no change with or without drug", "viability z-score with doxorubicin": 0.56, "viability z-score without drug": 0.34, "outcome": "inactive"}
{"gene": "Fbp2", "combined z-score class": "no change with or without drug", "viability z-score with doxorubicin": -1.35, "viability z-score without drug": -0.67, "outcome": "inactive"}
{"gene": "Vmac", "combined z-score class": "no change with or without drug", "viability z-score with doxorubicin": -0.45, "viability z-score without drug": -0.34, "outcome": "inactive"}
{"gene": "Kiss1", "combined z-score class": "no change with or without drug", "viability z-score with doxorubicin": -0.22, "viability z-score without drug": 0.67, "outcome": "inactive"}
{"gene": "Csdc2", "combined z-score class": "no change with or without drug", "viability z-score with doxorubicin": -0.67, "viability z-score without drug": -1.01, "outcome": "inactive"}
{"gene": "Polr2m", "combined z-score class": "no change with or without drug", "viability z-score with doxorubicin": 0.11, "viability z-score without drug": -0.51, "outcome": "inactive"}
{"gene": "Use1", "combined z-score class": "high without drug; low with doxorubicin", "viability z-score with doxorubicin": -2.59, "viability z-score without drug": 2.19, "outcome": "inactive"}
{"gene": "Gars1", "combined z-score class": "no change with or without drug", "viability z-score with doxorubicin": 0, "viability z-score without drug": -1.18, "outcome": "inactive"}
{"gene": "Or8d1b", "combined z-score class": "no change with or without drug", "viability z-score with doxorubicin": -1.46, "viability z-score without drug": -0.67, "outcome": "inactive"}
{"gene": "Reg3g", "combined z-score class": "no change with or without drug", "viability z-score with doxorubicin": 0.34, "viability z-score without drug": -0.84, "outcome": "inactive"}
{"gene": "Mrgpra5", "combined z-score class": "no change with or without drug", "viability z-score with doxorubicin": -1.12, "viability z-score without drug": -0.51, "outcome": "inactive"}

Part of the list above, set out differently.
{"gene":"Osbpl2","combined z-score class":"no change with or without drug","viability z-score with doxorubicin":-1.69,"viability z-score without drug":-0.34,"outcome":"inactive"}
{"gene":"Vmn1r222","combined z-score class":"high cell count with and without drug","viability z-score with doxorubicin":2.02,"viability z-score without drug":2.19,"outcome":"inactive"}

Next records:
{"gene": "Esd", "combined z-score class": "no change with or without drug", "viability z-score with doxorubicin": -1.12, "viability z-score without drug": 0.51, "outcome": "inactive"}
{"gene": "Rhbdl3", "combined z-score class": "no change with or without drug", "viability z-score with doxorubicin": 1.35, "viability z-score without drug": -0.17, "outcome": "inactive"}
{"gene": "Or5h24-ps1", "combined z-score class": "no change with or without drug", "viability z-score with doxorubicin": -0.22, "viability z-score without drug": 0.17, "outcome": "inactive"}
{"gene": "Rnf113a1", "combined z-score class": "no change with or without drug", "viability z-score with doxorubicin": -1.57, "viability z-score without drug": -0.84, "outcome": "inactive"}
{"gene": "Or8g28", "combined z-score class": "low cell count without drug only", "viability z-score with doxorubicin": -1.57, "viability z-score without drug": -2.87, "outcome": "inactive"}
{"gene": "Rbl1", "combined z-score class": "no change with or without drug", "viability z-score with doxorubicin": 0.56, "viability z-score without drug": 0.17, "outcome": "inactive"}
{"gene": "Cept1", "combined z-score class": "no change with or without drug", "viability z-score with doxorubicin": -1.8, "viability z-score without drug": -1.52, "outcome": "inactive"}
{"gene": "Or14j6", "combined z-score class": "no change with or without drug", "viability z-score with doxorubicin": -1.35, "viability z-score without drug": -1.85, "outcome": "inactive"}
{"gene": "Zfp704", "combined z-score class": "no change with or without drug", "viability z-score with doxorubicin": -0.22, "viability z-score without drug": 0.51, "outcome": "inactive"}
{"gene": "Zfp638", "combined z-score class": "no change with or without drug", "viability z-score with doxorubicin": -1.46, "viability z-score without drug": 0.17, "outcome": "inactive"}
{"gene": "Cxcl15", "combined z-score class": "no change with or without drug", "viability z-score with doxorubicin": 1.91, "viability z-score without drug": 0.34, "outcome": "inactive"}
{"gene": "4930542C12Rik", "combined z-score class": "high cell count without drug only", "viability z-score with doxorubicin": 0, "viability z-score without drug": 2.7, "outcome": "inactive"}
{"gene": "Sbf2", "combined z-score class": "no change with or without drug", "viability z-score with doxorubicin": -1.12, "viability z-score without drug": -0.17, "outcome": "inactive"}
{"gene": "Dnase2a", "combined z-score class": "no change with or without drug", "viability z-score with doxorubicin": 0.56, "viability z-score without drug": 0.51, "outcome": "inactive"}
{"gene": "Or4m1", "combined z-score class": "no change with or without drug", "viability z-score with doxorubicin": -0.22, "viability z-score without drug": -0.84, "outcome": "inactive"}
{"gene": "Zeb1", "combined z-score class": "no change with or without drug", "viability z-score with doxorubicin": -0.34, "viability z-score without drug": 0.84, "outcome": "inactive"}
{"gene": "Rcor1", "combined z-score class": "no change with or without drug", "viability z-score with doxorubicin": 0.11, "viability z-score without drug": 0.84, "outcome": "inactive"}
{"gene": "Lrrc1", "combined z-score class": "no change with or without drug", "viability z-score with doxorubicin": -0.9, "viability z-score without drug": -1.35, "outcome": "inactive"}
{"gene": "Cdc37l1", "combined z-score class": "no change with or without drug", "viability z-score with doxorubicin": -1.57, "viability z-score without drug": -0.51, "outcome": "inactive"}
